Experimental data taken from PMC10648710.

The chains behind the UniProt entries cited, without tags or fusion partners. Where a name states a change or a piece, a line headed by the entry shows the natural chain unless it says otherwise.
UniProt A2DLR2: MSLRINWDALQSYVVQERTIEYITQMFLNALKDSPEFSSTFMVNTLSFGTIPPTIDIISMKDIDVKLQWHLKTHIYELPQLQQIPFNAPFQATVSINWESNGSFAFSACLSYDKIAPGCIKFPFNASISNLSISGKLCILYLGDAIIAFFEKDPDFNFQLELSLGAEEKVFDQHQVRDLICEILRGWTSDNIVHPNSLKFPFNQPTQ

T1: TvMmm2b (Trichomonas vaginalis) (UniProt A2G1M4)
T1 sequence: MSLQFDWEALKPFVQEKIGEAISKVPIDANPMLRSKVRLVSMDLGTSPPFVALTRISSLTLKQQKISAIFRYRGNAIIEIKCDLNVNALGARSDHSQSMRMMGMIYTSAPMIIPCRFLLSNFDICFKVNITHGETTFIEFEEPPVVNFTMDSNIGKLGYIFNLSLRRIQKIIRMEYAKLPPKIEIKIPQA

B1: myeloid leukemia factor (TVAG_020600) (protein, UniProt A2EXX4 1-270)
chain: MSDWFNDPFFDETSNSNDIFAHANEMFRGIDRHFQQMMKDQFDLMGPMLGYDKDYDSNRPRIGMNNTNNNSRSRVEEVDANAETSGSRSGKSPKVEEPDDFSRSNTRNRSSKVNLPREQNHESFFSGFGDDDFSNGKSYCYCSSQVSYMNGDGTVNMKRKDTDSTGKTHMAEMRRMGDKTVVYDRKVDSDGKTTDSRKVHGMNDDEVDSFNQKWDSKVKDDPFLSHMSRRGANGIGYSSSKRDSNALGYDTKKSSSRENSSHSSSRHSKH
B2: myeloid leukemia factor (TVAG_150300) (protein, UniProt A2DRT2 1-265)
chain: MFDDWYNDPFFNERQSNPHRDIFSHINETFREFDRHMDNMMHQAFANFGRIPFGIEDDRQSRSHRHEIGMDNSRTSTRHTPQVEEVDDSSDFSQSRASRAPRVEEPDDFSHSSPKPKKDYSVGKYSNTRSNDFSSPFGGNGQSYYYCSSSVSYSNGDGTVSTKRKDMDSTGKTHMAEMRRMGDKTVVYDRKIDSDGKTYDSRKIHGMNEDEVDSFNQKWDSRVREDPFLNRSNRNGLGYAPRKNDSNALGYDSGHHSGSRHGHRH
B3: chaperon DnaJ-3 (protein, UniProt A2FNQ4 1-388)
chain: MARDFYNILGVSRDANDDAIKKAYRKLAMKWHPDKNPNNQAEAQAKFQEISEAYNVLSDPQKRKIYDQYGEEGLKVGGNPNPGPQFDSNNFGRAGPHTQYYTFNSDDAEKIFRQFFGPGGFGFGSFGDNDDVFGSMFGNAQRQAGRQSSGPQYQRFTSGNNGFPGAHFQQFTEAPEANDGLFQGRGHRIGSLDPNSNDFSRFYTFRDKADTKQKKSQSPMIVDVNCTLEQLYSGCTKKLRVTRDINGKNDAKLFQIDVKPGWKEGTKITYDGEGDIKPGYKPQNLVFVIKEKQHPLFKREADDLIYEQTIPLKQALAGTRIDITGVDEKSINLSFNEVISPGFSKRIPGLGMPRKAGGRGDLVVKFNVEFPKYLSQEQKDAMVRYLPN
B4: putative protein serine phosphatase (TVAG_274690) (protein, UniProt A2EB60 1-192)
chain: MQSSEAIDTEPKTISPVPEGRPVLVLDLDETCIYSTPAKPEKQQNFPIRIKRRNVFIQVRPGMQECIRRLSEKYEIFFYTASTKIYANKVIDAIAPFVDNEHRFFVSRDQLKDLTLINRPLGKVLLLDNSACSAQKNNLLLIKTWIGDPNDNAFTNEVMPLLDNLVKESDIPSACRNLVSSRRYPSLYVIRS
B5: TvMmm2b (protein, UniProt A2G1M4 1-190)
chain: MSLQFDWEALKPFVQEKIGEAISKVPIDANPMLRSKVRLVSMDLGTSPPFVALTRISSLTLKQQKISAIFRYRGNAIIEIKCDLNVNALGARSDHSQSMRMMGMIYTSAPMIIPCRFLLSNFDICFKVNITHGETTFIEFEEPPVVNFTMDSNIGKLGYIFNLSLRRIQKIIRMEYAKLPPKIEIKIPQA
B6: protein with protein kinase domain (TVAG_452010) (protein, UniProt A2DJS3 1-317)
chain: MSFPDEFQEPTLENETEEDEEEEEEEENDEDAPPQERVLPFEIDNYEVFAKLTAKLHSACYEATNKNTKSKCVIKYLPSRSRFRKFKDEKIEILGILNHSNIVSIERIIMQEDFNAIVMPFYKKGDLYERIFDNKKITLENASKMMWGLVNVVKHMHCLSCIHGNISLSNILVESKTKVIITGFSMATMNKFIDSHGPMTLYTAPEVETTHKLTFATDVFALGTVFYYLLMNTYEVNKDPSKLPQDAQVLLSGMVNPNPKKRFTIFHVASNKFFYDHIPEIDMKNALVNVVGNRCLEVNTAIMEGETMIEGSDEILF
B7: conserved hypothetical protein CHP-1 (protein, UniProt A2DZI9 1-287)
chain: MEGTYSTLTEVILAVFQHEQTSLLSLDKICEQVNSPDLRLDNGKGVPVPCTSISRRRISSILSSSEFFIRAGPPRSCIWALRPQNPLFLSNGALASAIEQTLTEHGPLQTEDFVTLTGLSGSNESVFSHFFLSHPDEYSMDKDNRWWFANQPQPIRQQFENVVVAIVHALHALGQESSIEEIHWYLCLATTDGNKRISRRKISRELSRRTDLFQHISRAKYSLLQPQQNQFPRKVIPEPIISKVFEPAPLTMDFQYDFPQCETPPCVNNDIFDANDFFGLSFSCNFD
B8: conserved hypothetical protein CHP-2 (protein, UniProt A2EK77 1-407)
chain: MVIIQLNNRTLQRINDYNAQDKVTLTINNIEIVFNKSFAIAISQMIYSQYLLDKNIDKIDINSDIMSNDTYNILKDFFQYRITEIEVDETVIKDLLHLGMSLGIQELIDLYKSNVIDKKKLDTTNCIQLLEFYMDLSWNEKLIECTDFIAEHFYKIDQNQLKLISKKLGVDILKQILNNKKLEITDEDSLAKFIISLARKDVVFSSLFENIYFEFCKEETIREMKDFVTSDNYQDVVNSLVDSIIRSRDPKNKDRCGGKEVTNYFESGNVVMSASSIDNGSAEIINKYRNDTYFQSRGEPNSWIEWKLKQNYLIQPTSYIVRTSPTYTSFLSRLQSWKVEGLTINGETKVIHEVSNSLLHEGEIRKYDIISHDRFVSFKLIQTGKNSTNTDHLLIDVFDFSGKVLEI
B9: protein with EF hand-type calcium-binding domain (TVAG_454360) (protein, UniProt A2EU49 1-828)
chain: MLSPDIELYCHAIISRMKEVIRVQDLEVLTPDIDPDFRAEIKEEEFRSLVAAFPARFHPDELAALVHKYKKDKYIDFARFISDLVHPDQPIDIVITPESPKKKLPSKYEELARYLYDRCTNLSEAMAPYDKNNTGKVTADQFCRGFLGFDSAMHVFRLAVDRNTNQVDYRQLQREINTIDLKFTAQESNFAPDQIPDIVRKFVQQVNSHGIILQDVFIKLSAHTGFSDPQQFLQTLRTLKLAFTIADYQEITKAFTKEGRVDVKYFLRVANLYSQEKYVPPPPEVVIEHVKARLIDFINDRRLNIWTMFKPYDRSGNGLVPKTIFVNTLIALQFDITDREIREFVDTITVDEDKYVNYIEFAKVVYARRAVNFDETIDSVLERLRNHVIEKSVRLARCLSVYDREKSGLISTSQFIAALRRIQFTLTEKDISLIRDHYEEKKMRHFLLWRHISEDVDIQQGPVGNMSASSSNLQFSPSMREILSSSRTMTTYNTIQVSSSNPTENRPVPDNLIPVFGRIFKRTSDFGIDIADEFLRKDKLKKGRVPRAFFIETISMVNIQLSAQELSDLCQFYTCQNSTDIYYMSFLKDVDEFGTLAADTLHDDDNEEESKPEEEVKNDDYSYVPPPEECRTTRSLEKSDVPHDLESDLAQLKFGCARMHIDPIDMFKDFDKKRTGIVSKSNFARCISNSGIRLSQSIIDSLSNHFSDTKKTDNVNYLRILKAIDENANHVNYANISTDELETIKLQSHKFMERLKQQRKTIANVFDIVEDQDATMPEADFVTKVSQACPTLTNDYLRLFVKKYRAETNGMVYYMRFVNDCNKEALLF
B10: EF-hand protein (TVAG_378020) (protein, UniProt A2DAZ3 1-186)
chain: MQEDTENLVFNAKMITENPEEKARVFSISFNLREKKLSILEGKSSFCISPQRFLSPSTVIDPTTKSPYTESSFYIGSRIIAAGRLFELVDASDYTLSYMEAYPNRFPYTDVDLCFEYLKKVTENVQLKFQDANPAAFGTMPIEQAREVLYSFHPTLPKHASVTLLRRFSAEGRFNYQAVLEGANIC
B11: EF-hand protein (TVAG_157510) (protein, UniProt A2E9M3 1-720)
chain: MCAQILPKLKNYCTTRGIDIPYELEYLDRKRTGFLNELTFRKFFSNIGYPINDQQFKDIVAANTTEKGIEIAKFISSIENSQDQESQQALDIAPIYPELKRLKGYLQTNNTTLREIFRRADPSCRGYVSENAFFHELGYSTDAKKIAAAFTFDKYEGVRYSLIERELNNLQLTTTKVKPDLSKLAESFEFNGIDMNNVFNQYDRYKTGRIPVEAFNAVIRNFSRDSQPIIEYYASPDGSVDIRQFSQDINMTTQTIRSTPKVVTRQVRQVDIDELVSYLKGELRSRHVRMSDFFGDLQHEELVKPQHFQGILNTAGLTISQDEVVALSQKFMNERGLVQLQPFLALFNDAPTQRIPEINVKGLREYLNFSSRRLLPLLQRQDPQRTGEVDIGVLSTILTRSGYAMNRMELEGIKRAFAGRLSPTSIKYEELCMAVDPEIPKQQPKEEPKVEKKQRELTPELMNLLKKANNAYKRNGVCALDEFRIVDMRQTGILTAREISDAVQCAEFTPQEFNKFLSYYPDHKYMDMVRDLQRDEVKADENDQPQKQQYDDNFVQKLAVLKGDLEVRSLTVADVLGARYVPVQRAIGLLAKYTDDAPMICQAFIDRKRPELVDTAVFSREIEKIPAKKKAVTRDDAGAIYRDLGELRAKFEARHCNPRRAFAGKPPKISYDELMDALRSLNIILDGRARFRIREHFEINGEVDWNNFIEEIEKSTTLAF
B12: EF-hand protein (TVAG_037530) (protein, UniProt A2FCW0 1-785)
chain: MEAVQQLIARIRQTCDRNAVDVELELTSYDRKRNGIISPVSLHRWISSIGLNFTPQQVQTLAEAFKKGEGVDWKALQQTIELSKSYDQGASTKTPNCTEELRRFGSELALRRQSVREVLKQFDPANKGKVSANDFYRAFGCSPLTKLLVKVYADTITGLIDYFRLQNDVQTVSVKQVNPDAPIDELPDCFVLVWRYIKSRSVDLYGLFKRADSMNSGKLSLDAFIAAISSTGASLTPVELRDIAFPFYQVDTGYCNYKQFIATVEAYKPRVSENAPEQEKTETKPSISVDNLLNDIRQIIVSRRIHVSDYFDPLARHGNPDSCPIRVFGQIVASMQLSLSNDEIFAIAENYRLQNGEIDYHKFASAITPQQTMRSSTTIKDVIGNLKQFLATSPTTLMQSASRFDRANTGEMTVEQLQSALGMIGFDANREDLNLICQQYPGKRFATVSWRDLCTAVDPEDAELRLSARKPVEEDEVRARDPTMAGKPPKAINLLLLNIQKSANVYSLQSEFEKNDRRRRGCVPNQVFLDVLLDMQLNLNQSDVRGLISFFRVTGSPEVNYREFLSALNHAEPEPEPEPEKSYQQEKPLPDFAPIVHNFLRRFKSFSRMRRLSVSDIFEPYDPQHTGFIQVFKVAAAFNNVQFTAMRAEMEDLCSAFRDSRKKEIFNYKLFERAVEAEDIDSEWAKAGISGEPISAEVNRDAMATCLQIRDRLSCKRRRIGVAFVGIQSETITSNEFQKRLEDVGIVLRAGQLNALFRKYRVGITEEIRWKDFCTDVENSRTIGE

Tests used:
[1] = target: T1, TvMmm2b (Trichomonas vaginalis); experiment: affinity purification with mass spectrometry; T. vaginalis cells expressing C-terminally HA-tagged bait cross-linked with 1 mM DSP (room temperature, 30 min), solubilised in 50 mM TRIS, 150 mM NaCl, pH 7.2 with 1% Triton X-100; anti-HA Dynabeads 90 min at room temperature; LFQ MS against untransfected T1 control, FDR 0.05, S = 1; three independent coIPs for each bait
[2] = target: TvMdm12 (Trichomonas vaginalis) (UniProt A2DLR2); experiment: as above

binding [1]	binding [2]	Molecule
binds		Rab22
binds		TvMdm12 (from UniProt A2DLR2)
no binding		Tom40
binds	binds	B1
binds	binds	B2
binds	binds	B3
binds	binds	B4
	binds	B5
binds	binds	B6
binds	binds	B7
binds	binds	B8
binds		B9
	binds	B10
	binds	B11
	binds	B12

Results are given in words; binding and its absence hold for the method and conditions named. In cells and extracts the contact can be indirect. These calls come from enrichment with a bait or labelling near it, and not all partners need be listed. For some of these results: A no says only that the protein was not detected with the bait.
